# Experimental data: patent publication US8110660B2, “Soluble ENPP4 protein” (Ono Pharmaceutical Co., Ltd., priority 2004, dated 2012)
# Some results were stated once for a whole list of compounds, not compound by compound.
# Target: T1, purified soluble type ENPP6 protein (Homo sapiens, UniProt Q6UWR7)
# T1 construct: signal peptide; base No. 1 to 66, mature protein; base No. 67 to 1269; made in house; host or cells: HEK293T (secreted into culture supernatant, His-Trap purified)
# T1 sequence (Q6UWR7 23-423): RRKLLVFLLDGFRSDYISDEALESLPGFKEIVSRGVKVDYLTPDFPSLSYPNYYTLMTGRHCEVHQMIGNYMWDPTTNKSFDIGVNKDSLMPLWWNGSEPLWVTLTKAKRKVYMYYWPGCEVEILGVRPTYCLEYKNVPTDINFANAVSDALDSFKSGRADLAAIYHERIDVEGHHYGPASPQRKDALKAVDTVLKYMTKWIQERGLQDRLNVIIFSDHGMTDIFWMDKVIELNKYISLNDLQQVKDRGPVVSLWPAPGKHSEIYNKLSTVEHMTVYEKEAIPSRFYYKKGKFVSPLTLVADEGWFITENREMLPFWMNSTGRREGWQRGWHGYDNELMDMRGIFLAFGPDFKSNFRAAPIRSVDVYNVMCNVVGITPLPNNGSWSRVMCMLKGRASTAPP
# Assay: Inhibition of light-emitting substrate degradation by soluble type ENPP6 protein
# Format: biochemical
# Settings: pH 9.6, 37° C., 2 hours; 1 mM printed for ADP
# Description: 0.2 μg of the purified soluble type ENPP6 protein was mixed in 90 μL of assay buffer (20 mM HEPES, 140 mM NaCl, 5 mM KCl, 1 mM CaCl2, 1 mM MgCl2, 10 mM Glucose, pH 9.6), and 10 μL of each of 10 mM pNP-PP and a solution of a test compound was added thereto, and was kept at 37° C. for 2 hours. Then, absorption of light of 405 nm was measured and thereby, the amount of p-nitorphenol was quantitatively determined and thereby the inhibitory activity of […] degradation of each of the test compounds was examined. By using Neurotransmitter Library Plate 10 (Purinergic & adenosines) ver. 2, Bioactive Lipid Library ver. 3 (manufactured by BIOMOL Inc.), and various lysophospholipids as test compounds, the inhibitory activity of pNP-PP degradation was measured and, 80% or more of the inhibitory activity was detected in Glycerophosphorilcholine, and 70% or more of the inhibitory activity in Lysophosphatidylcholine, 1-Methyladenosine, 3-Deazaadenosine, ATP, and ADP(1 mM), and 60% or more of the inhibitory activity in N6-Methyladenosine, N6-Methyl-2′-deoxy-adenosine, S-Adenosyl-L-Homocysteine, and 2-MethylthioATP.
row,Compound,inhibitory activity of pNP-PP degradation [%]
1,Nc1nccc2c1ncn2[C@@H]1O[C@H](CO)[C@@H](O)[C@H]1O [3-Deazaadenosine],≥ 70
2,CNc1ncnc2c1ncn2[C@H]1C[C@H](O)[C@@H](CO)O1 [N6-Methyl-2′-deoxy-adenosine],≥ 60
3,Nc1ncnc2c1ncn2[C@@H]1O[C@H](CSCC[C@H](N)C(=O)O)[C@@H](O)[C@H]1O [S-Adenosyl-L-Homocysteine],≥ 60
